Laboratory results as given in PubChem BioAssay AID256 (DTP/NCI, 2004).
The list is a part of this screen's results and no random one: it gathers tests that were run many times, whatever their T/C, doses with no T/C, and many T/C values between a quarter and a half above the control. Further doses and runs are listed elsewhere. T/C: endpoint of the treated group in % of that of the vehicle group. Some entries give survivors of the animals treated and no T/C: the source holds a T/C of zero for them, seemingly a mark for toxic or unscored doses. Some doses without a T/C left all or most animals alive at the check, yet need not have been tolerated: the source hardly ever lists a survival T/C far under the control, and the zero likely stands for such cases as well. Counts of survivors are from the toxicity check (mostly the fifth day) where no day follows; animals may have died later. Schedules are NCI's codes, taken here to give the interval after Q, in days (D) or hours (H), and the number of doses after X. Some entries hold several experiments; their values stand side by side, smallest first. Some structures stand for samples that the source files as different forms (salt, stereo form or complex); doses refer to the form tested. Where survival is the endpoint, this PubChem deposit counts one and a half times the control or more as active, and values a quarter to a half above the control carry no call in these data; other NCI protocols may use other cut-offs. Some T/C values carry the count of animals alive at the toxicity check (mostly the fifth day); where none is given, no animal had died by that day.

Test system: CD2F1 mice, L1210 leukemia ip, survival T/C
Test: NCI In Vivo Anticancer Drug Screen. Data for tumor model L1210 Leukemia (intraperitoneal) in CD2F1 (CDF1) mice
Conditions: higher T/C = longer survival
Outline: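 Tumor-bearing mice (transplanted tumor) were split into treated and vehicle control groups, and the measured endpoint of each treated group was divided by that of its vehicle controls.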

[1] = T/C endpoint: mean survival time, dose: 400.0 mg/kg/injection, schedule: Q01DX001 (ip), vehicle: saline

Which survivor count (T/C endpoint: median survival time, dose: 50.0 mg/kg/injection, schedule: Q01DX009 (ip), vehicle: Klucel (hydroxypropylcellulose) (HPC)) does the source give for `O=S(=O)(c1cccc(N=C=S)c1)c1cccc(N=C=S)c1` here?
The survivor count was 2 of 6.

And the survivor count (T/C endpoint: median survival time, dose: 100.0 mg/kg/injection, schedule: Q01DX009 (ip), vehicle: Klucel (hydroxypropylcellulose) (HPC))?
Its survivor count is 0 of 6.

With `CN(C)c1cccc(C(C)(C)C)n1` as the molecule, how does the survivor count (T/C endpoint: mean survival time, dose: 100.0 mg/kg/injection, schedule: Q04DX002 (ip), vehicle: saline) read?
Its survivor count is 0 of 3.

What about the survivor count (T/C endpoint: mean survival time, dose: 200.0 mg/kg/injection, schedule: Q04DX002 (ip), vehicle: saline) of the same molecule?
The survivor count was 0 of 3.

And the survivor count (T/C endpoint: mean survival time, dose: 400.0 mg/kg/injection, schedule: Q04DX002 (ip), vehicle: saline)?
Its survivor count is 0 of 3.

How did the T/C (T/C endpoint: mean survival time, dose: 150.0 mg/kg/injection, schedule: Q01DX009 (ip), vehicle: Klucel (hydroxypropylcellulose) (HPC)) turn out when `CN(C)N=Nc1cc(C(N)=O)cc(C(N)=O)c1` was run?
Its T/C is 134 % of control.

What about the survivor count (T/C endpoint: mean survival time, dose: 300.0 mg/kg/injection, schedule: Q01DX009 (ip), vehicle: Klucel (hydroxypropylcellulose) (HPC)) of the same molecule?
Its survivor count is 5 of 6.

`[I][Pt+2][I].[NH-]c1cccc(F)c1.[NH-]c1cccc(F)c1` was tested. Which survivor count (T/C endpoint: mean survival time, dose: 200.0 mg/kg/injection, schedule: Q04DX003 (ip), vehicle: distilled water + Tween-80) did it give?
Its survivor count is 1 of 6.

How did the T/C (T/C endpoint: mean survival time, dose: 6.0 mg/kg/injection, schedule: Q01DX009 (ip), vehicle: water) turn out when `COc1cccc2c1C(=O)c1c(O)c3c(c(O)c1C2=O)C[C@H](O)C[C@@H]3OC1CC(N)C(O)C(C)O1` (stereo partly specified) was run?
The T/C was 135 % of control.

What about the T/C (T/C endpoint: mean survival time, dose: 24.0 mg/kg/injection, schedule: Q01DX009 (ip), vehicle: saline) of the same molecule?
Its T/C is 138 % of control.

What about the survivor count (T/C endpoint: mean survival time, dose: 48.0 mg/kg/injection, schedule: Q01DX009 (ip), vehicle: water) of the same molecule?
The survivor count was 3 of 6.

`O=Cc1cc([N+](=O)[O-])cc(CCl)c1O` was tested. Which survivor count (T/C endpoint: mean survival time, dose: 200.0 mg/kg/injection, schedule: Q01DX009 (ip), vehicle: Klucel (hydroxypropylcellulose) (HPC)) did it give?
The survivor count was 1 of 6.

What does the source list for `CN(C)Cc1ccc2ccccc2c1`?
survivor count (T/C endpoint: mean survival time, dose: 200.0 mg/kg/injection, schedule: Q01DX001 (ip), vehicle: saline): 1 of 6; survivor count [1]: 0 of 6

`CC(C)NCC(O)c1ccc(O)c(O)c1` (stereo unspecified) was tested. Which T/C (T/C endpoint: mean survival time, dose: 400.0 mg/kg/injection, schedule: Q01DX009 (ip), vehicle: saline) did it give?
Its T/C is 125 % of control.

What about the survivor count (T/C endpoint: mean survival time, dose: 512.0 mg/kg/injection, schedule: Q01DX001 (ip), vehicle: other) of the same molecule?
Its survivor count is 2 of 6.

`O=CC(NC(=O)N(CCCl)N=O)C(O)C(O)C(O)CO` (stereo unspecified) was tested. Which T/C (T/C endpoint: mean survival time, dose: 1.87 mg/kg/injection, schedule: Q01DX009 (ip), vehicle: saline) did it give?
Its T/C is 140 % of control.

And the T/C (T/C endpoint: mean survival time, dose: 1.88 mg/kg/injection, schedule: Q01DX009 (ip), vehicle: citric acid)?
The T/C was 148 % of control.

What about the T/C (T/C endpoint: mean survival time, dose: 1.9 mg/kg/injection, schedule: Q01DX009 (ip), vehicle: water) of the same molecule?
Its T/C is 147 % of control.

And the T/C (T/C endpoint: mean survival time, dose: 4.0 mg/kg/injection, schedule: Q01DX001 (ip), vehicle: water)?
Its T/C is 128 % of control.

And the T/C (T/C endpoint: mean survival time, dose: 6.25 mg/kg/injection, schedule: Q01DX001 (ip), vehicle: saline)?
Its T/C is 134 % of control.

What about the T/C (T/C endpoint: mean survival time, dose: 7.0 mg/kg/injection, schedule: Q01DX001 (ip), vehicle: saline) of the same molecule?
The T/C was 138 % of control.

What about the T/C (T/C endpoint: mean survival time, dose: 7.5 mg/kg/injection, schedule: Q01DX009 (ip), vehicle: citric acid) of the same molecule?
Its T/C is 147 % of control [5 of 6 alive].

What about the survivor count (T/C endpoint: mean survival time, dose: 15.0 mg/kg/injection, schedule: Q01DX009 (ip), vehicle: citric acid) of the same molecule?
The survivor count was 3 of 6 and 6 of 6.

And the survivor count (T/C endpoint: mean survival time, dose: 30.0 mg/kg/injection, schedule: Q01DX009 (ip), vehicle: citric acid)?
The survivor count was 0 of 6 and 5 of 6.

And the survivor count (T/C endpoint: mean survival time, dose: 30.0 mg/kg/injection, schedule: Q01DX009 (ip), vehicle: saline)?
Its survivor count is 6 of 6.

What about the survivor count (T/C endpoint: mean survival time, dose: 30.0 mg/kg/injection, schedule: Q01DX009 (ip), vehicle: water) of the same molecule?
The survivor count was 6 of 6.

And the survivor count (T/C endpoint: mean survival time, dose: 64.0 mg/kg/injection, schedule: Q01DX001 (ip), vehicle: water)?
The survivor count was 5 of 6.

What about the T/C (T/C endpoint: median survival time, dose: 9.0 mg/kg/injection, schedule: Q01DX001 (ip), vehicle: saline) of the same molecule?
The T/C was 125 % of control.

Which survivor count (T/C endpoint: mean survival time, dose: 200.0 mg/kg/injection, schedule: Q04DX003 (ip), vehicle: saline with Tween-80) does the source give for `COc1cc([N+](=O)[O-])ccc1NC(=O)Nc1ccc(Cl)cc1` here?
The survivor count was 6 of 6.

What about the survivor count (T/C endpoint: mean survival time, dose: 400.0 mg/kg/injection, schedule: Q01DX009 (ip), vehicle: saline with Tween-80) of the same molecule?
Its survivor count is 3 of 6.

What does the source list for `CC(=O)OCC1C(OC(C)=O)CC2CCC1N2C#N` (stereo unspecified)?
survivor count (T/C endpoint: mean survival time, dose: 100.0 mg/kg/injection, schedule: Q04DX002 (ip), vehicle: Klucel (hydroxypropylcellulose) (HPC)): 3 of 3; survivor count (T/C endpoint: mean survival time, dose: 400.0 mg/kg/injection, schedule: Q04DX002 (ip), vehicle: Klucel (hydroxypropylcellulose) (HPC)): 3 of 3

`CCSC(C)CC(=O)O` (stereo unspecified) was tested. Which survivor count [1] did it give?
Its survivor count is 0 of 6.

`N#CSCc1ccccc1Cl` was tested. Which survivor count (T/C endpoint: mean survival time, dose: 20.0 mg/kg/injection, schedule: Q04DX003 (ip), vehicle: saline with Tween-80) did it give?
Its survivor count is 5 of 6.

`CCOc1ccc(NC2OC(CO)C(O)C(O)C2O)cc1` (stereo unspecified) was tested. Which survivor count [1] did it give?
Its survivor count is 0 of 4.
